Measurements published in paper PMC3397443, “Sinularones A–I, New Cyclopentenone and Butenolide Derivatives from a Marine Soft Coral Sinularia sp. and Their Antifouling Activity” (Marine Drugs, 2012).

system: larvae of the barnacle Balanus amphitrite; assay: Larval settlement bioassay (antifouling activity); type: in vivo; details: ratio of larval LC50 to settlement EC50
Experimental: All compounds were tested for their cytotoxicity against a panel of tumor cell lines including human ovarian carcinoma A2780, human lung adenocarcinoma A549, human gastric carcinoma BGC823, human hepatoma Bel7402, and human colonic carcinoma HCT-8. […] In order to detect whether these compounds play a role for ecological functions, the test for antifouling activity against the larvae of the barnacle Balanus amphitrite was performed. […] A primary discussion of structure-activity relationship implied that α,β-unsaturated 2,3-dimethyl-γ-lactone is a functional unit for anti-barnacle.
Adults of the barnacle Balanus amphitrite Darwin were exposed to air for more than 6 h, and then were placed in a container filled with fresh 0.22 µm filtered sea water (FSW) to release nauplii. The collected nauplii were reared to cyprid stage according to the method described by Thiyagarajan et al.. When kept at 26–28 °C and fed with Chaetoceros gracilis, larvae developed to cyprids within four days. Fresh cyprids were used in the tests.

SMILES	Balanus amphitrite Larvae LC50/EC50
CC(=O)CC/C=C(/C)C[C@@H]1CC(C)(C)CC1=O [Compound 1, Sinularone A]	>3.61
CCCCC[C@@]1(O)C(C)=C(C)C(=O)[C@H]1CC(=O)OCC [Compound 2, Sinularone B]	>2.13
CCOC(=O)CC[C@]1(O)OC(=O)C(C)=C1C [Compound 7, Sinularone G]	>2.69
CCO[C@@]1(CCC(=O)OC)OC(=O)C(C)=C1C [Compound 8, Sinularone H]	>2.34
CCOC(=O)CCCCCCCCCCCC[C@]1(O)OC(=O)C(C)=C1C [Compound 9, Sinularone I]	>3.97
CCCCC[C@]1(O)OC(=O)C(C)=C1C [Compound 10, (S)-4-hydroxy-2,3-dimethyl-4-pentyl-γ-lactone]	>13.02
